Data from the supplement of paper PMC7666118.
This is one part of the list.

Sequences of proteins named here, by UniProt entry; tags and fusion partners are left off. A change or cut given only in a name is not applied to a line headed by its entry.
UniProt Q8TCD1: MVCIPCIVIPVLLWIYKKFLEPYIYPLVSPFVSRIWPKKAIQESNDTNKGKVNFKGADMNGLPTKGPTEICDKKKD
UniProt P42574: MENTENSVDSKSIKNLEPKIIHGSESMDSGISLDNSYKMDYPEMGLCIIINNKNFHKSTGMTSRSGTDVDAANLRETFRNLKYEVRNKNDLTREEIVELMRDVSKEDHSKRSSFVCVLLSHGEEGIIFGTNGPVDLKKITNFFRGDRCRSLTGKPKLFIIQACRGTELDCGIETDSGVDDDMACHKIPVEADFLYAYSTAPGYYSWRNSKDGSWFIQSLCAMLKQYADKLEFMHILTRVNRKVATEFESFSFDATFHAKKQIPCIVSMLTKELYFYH
UniProt O95568: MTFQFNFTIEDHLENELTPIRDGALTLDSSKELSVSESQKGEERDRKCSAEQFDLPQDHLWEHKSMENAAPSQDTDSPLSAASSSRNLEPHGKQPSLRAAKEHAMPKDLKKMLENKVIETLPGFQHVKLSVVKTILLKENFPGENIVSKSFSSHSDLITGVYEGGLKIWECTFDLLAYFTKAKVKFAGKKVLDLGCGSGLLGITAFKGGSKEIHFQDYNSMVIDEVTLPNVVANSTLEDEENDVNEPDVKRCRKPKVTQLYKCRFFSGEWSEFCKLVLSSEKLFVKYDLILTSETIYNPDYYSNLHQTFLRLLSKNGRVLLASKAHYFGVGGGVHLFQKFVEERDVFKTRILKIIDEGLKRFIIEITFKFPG
UniProt Q12980: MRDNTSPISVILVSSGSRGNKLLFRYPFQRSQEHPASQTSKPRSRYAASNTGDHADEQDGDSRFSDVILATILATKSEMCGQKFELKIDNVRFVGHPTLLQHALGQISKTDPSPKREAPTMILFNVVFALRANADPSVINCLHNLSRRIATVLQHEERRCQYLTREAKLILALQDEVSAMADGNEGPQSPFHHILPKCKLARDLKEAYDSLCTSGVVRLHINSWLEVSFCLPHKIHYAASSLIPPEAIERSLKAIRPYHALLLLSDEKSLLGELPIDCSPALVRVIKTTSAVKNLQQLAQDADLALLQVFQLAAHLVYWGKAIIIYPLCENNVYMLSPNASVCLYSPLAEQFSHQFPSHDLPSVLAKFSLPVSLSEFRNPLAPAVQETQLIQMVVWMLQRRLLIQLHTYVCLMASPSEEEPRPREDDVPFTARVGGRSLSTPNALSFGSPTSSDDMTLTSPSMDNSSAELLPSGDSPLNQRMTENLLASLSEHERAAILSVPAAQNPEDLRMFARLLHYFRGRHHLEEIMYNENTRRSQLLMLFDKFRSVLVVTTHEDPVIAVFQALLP
UniProt Q9BV29: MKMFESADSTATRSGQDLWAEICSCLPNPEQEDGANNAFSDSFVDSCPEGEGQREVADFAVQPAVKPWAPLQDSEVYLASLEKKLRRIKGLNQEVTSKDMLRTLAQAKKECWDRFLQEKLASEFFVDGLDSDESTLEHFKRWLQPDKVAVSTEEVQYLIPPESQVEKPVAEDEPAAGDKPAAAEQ
UniProt Q8NDZ2: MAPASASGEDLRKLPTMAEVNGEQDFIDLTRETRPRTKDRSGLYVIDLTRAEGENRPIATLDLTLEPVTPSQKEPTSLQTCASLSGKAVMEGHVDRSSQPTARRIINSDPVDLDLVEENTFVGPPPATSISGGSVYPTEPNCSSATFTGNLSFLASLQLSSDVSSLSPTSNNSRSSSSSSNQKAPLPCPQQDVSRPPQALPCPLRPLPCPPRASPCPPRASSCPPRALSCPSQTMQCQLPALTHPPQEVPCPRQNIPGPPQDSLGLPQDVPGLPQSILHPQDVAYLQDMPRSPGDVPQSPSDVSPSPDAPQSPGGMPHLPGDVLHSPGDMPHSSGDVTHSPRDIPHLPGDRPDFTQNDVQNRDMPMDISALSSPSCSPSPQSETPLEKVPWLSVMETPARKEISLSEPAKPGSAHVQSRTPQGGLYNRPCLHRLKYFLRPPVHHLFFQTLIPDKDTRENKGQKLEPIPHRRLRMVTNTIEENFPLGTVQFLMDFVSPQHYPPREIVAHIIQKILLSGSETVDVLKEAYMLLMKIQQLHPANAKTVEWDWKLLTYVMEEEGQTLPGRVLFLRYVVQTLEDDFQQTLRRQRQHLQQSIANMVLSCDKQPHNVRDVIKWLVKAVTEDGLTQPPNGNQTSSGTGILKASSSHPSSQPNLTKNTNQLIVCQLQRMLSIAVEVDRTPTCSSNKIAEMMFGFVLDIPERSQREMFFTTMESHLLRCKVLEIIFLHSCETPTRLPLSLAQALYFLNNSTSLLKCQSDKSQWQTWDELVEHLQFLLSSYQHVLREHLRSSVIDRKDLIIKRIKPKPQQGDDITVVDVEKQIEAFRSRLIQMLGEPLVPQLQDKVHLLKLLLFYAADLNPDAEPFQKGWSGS
UniProt Q6P1N0: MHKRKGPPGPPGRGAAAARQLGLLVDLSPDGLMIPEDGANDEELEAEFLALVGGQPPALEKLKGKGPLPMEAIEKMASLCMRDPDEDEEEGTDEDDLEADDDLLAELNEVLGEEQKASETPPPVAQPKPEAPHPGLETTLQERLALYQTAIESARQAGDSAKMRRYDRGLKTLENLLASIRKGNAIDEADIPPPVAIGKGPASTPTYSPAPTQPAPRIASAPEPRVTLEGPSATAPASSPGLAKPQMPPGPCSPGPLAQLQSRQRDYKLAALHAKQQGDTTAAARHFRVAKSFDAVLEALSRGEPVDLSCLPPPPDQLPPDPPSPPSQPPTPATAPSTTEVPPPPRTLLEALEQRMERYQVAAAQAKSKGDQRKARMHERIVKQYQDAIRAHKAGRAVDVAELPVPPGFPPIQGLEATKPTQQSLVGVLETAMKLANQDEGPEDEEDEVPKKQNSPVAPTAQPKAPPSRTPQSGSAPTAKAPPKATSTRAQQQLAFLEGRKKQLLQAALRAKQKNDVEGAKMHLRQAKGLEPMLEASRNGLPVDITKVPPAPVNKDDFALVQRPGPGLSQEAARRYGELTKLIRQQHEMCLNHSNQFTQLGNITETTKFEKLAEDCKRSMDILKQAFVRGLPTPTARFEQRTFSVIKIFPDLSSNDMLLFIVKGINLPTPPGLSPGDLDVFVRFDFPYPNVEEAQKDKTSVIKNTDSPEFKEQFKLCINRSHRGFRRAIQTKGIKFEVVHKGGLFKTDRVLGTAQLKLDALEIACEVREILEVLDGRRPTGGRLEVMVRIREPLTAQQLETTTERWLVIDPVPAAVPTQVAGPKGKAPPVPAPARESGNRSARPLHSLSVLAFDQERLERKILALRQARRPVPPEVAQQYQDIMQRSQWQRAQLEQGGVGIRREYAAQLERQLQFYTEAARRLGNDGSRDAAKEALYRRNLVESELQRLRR
UniProt Q5T280: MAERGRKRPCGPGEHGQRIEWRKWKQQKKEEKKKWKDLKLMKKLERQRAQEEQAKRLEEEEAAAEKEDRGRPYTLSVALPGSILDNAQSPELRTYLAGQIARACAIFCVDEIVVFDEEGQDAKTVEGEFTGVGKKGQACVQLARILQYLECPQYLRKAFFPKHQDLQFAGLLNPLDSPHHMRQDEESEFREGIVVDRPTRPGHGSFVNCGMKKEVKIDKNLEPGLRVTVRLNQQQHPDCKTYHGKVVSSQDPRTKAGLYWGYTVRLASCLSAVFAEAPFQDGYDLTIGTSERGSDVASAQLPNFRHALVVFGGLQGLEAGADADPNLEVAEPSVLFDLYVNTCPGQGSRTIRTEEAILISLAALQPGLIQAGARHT
UniProt Q2PPJ7: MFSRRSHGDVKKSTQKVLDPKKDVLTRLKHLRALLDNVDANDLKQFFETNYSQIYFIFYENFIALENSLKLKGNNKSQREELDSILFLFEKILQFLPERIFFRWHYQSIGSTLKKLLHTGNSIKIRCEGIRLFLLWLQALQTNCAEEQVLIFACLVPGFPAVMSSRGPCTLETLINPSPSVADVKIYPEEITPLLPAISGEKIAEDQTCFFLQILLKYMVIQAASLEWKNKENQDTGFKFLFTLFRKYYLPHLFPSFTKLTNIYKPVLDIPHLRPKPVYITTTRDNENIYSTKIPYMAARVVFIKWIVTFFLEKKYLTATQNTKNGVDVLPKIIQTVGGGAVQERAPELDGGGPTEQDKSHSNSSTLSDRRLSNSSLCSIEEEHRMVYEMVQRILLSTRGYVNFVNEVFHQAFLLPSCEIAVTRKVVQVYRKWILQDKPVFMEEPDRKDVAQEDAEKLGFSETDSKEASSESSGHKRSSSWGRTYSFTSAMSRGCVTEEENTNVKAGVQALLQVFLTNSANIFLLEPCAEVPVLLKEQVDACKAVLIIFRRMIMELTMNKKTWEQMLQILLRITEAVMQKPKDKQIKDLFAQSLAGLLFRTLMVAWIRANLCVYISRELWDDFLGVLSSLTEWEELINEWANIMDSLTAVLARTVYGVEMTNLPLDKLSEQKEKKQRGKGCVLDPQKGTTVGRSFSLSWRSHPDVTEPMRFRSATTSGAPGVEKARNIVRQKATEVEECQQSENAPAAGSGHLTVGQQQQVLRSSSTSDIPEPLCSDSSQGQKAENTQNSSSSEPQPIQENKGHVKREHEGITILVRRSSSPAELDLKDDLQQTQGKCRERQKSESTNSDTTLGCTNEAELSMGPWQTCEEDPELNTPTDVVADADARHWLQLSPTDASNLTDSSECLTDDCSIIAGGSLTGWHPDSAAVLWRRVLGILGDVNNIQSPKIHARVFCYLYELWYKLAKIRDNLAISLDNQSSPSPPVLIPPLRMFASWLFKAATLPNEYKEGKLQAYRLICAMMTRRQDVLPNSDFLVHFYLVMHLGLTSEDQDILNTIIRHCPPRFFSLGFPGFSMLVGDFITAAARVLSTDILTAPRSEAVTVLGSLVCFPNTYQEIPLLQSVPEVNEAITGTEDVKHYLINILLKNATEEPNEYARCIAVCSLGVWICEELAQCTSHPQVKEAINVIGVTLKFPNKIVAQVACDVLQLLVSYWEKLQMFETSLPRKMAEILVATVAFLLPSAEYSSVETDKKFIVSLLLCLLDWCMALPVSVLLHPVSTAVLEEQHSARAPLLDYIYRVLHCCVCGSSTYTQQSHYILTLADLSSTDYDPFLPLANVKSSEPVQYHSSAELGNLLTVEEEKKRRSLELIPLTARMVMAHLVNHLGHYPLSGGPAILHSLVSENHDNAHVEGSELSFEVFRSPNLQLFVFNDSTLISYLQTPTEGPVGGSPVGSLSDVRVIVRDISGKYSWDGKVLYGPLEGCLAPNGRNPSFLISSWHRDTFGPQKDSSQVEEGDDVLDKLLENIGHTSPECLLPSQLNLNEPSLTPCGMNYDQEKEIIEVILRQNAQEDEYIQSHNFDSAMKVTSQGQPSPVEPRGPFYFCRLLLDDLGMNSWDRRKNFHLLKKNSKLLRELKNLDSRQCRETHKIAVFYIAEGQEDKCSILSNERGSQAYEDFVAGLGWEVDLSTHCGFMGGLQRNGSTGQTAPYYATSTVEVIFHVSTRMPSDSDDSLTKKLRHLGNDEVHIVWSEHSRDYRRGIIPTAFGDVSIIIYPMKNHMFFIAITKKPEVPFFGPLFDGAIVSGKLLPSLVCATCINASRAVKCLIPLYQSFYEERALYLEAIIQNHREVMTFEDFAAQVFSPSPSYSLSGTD
UniProt Q13185: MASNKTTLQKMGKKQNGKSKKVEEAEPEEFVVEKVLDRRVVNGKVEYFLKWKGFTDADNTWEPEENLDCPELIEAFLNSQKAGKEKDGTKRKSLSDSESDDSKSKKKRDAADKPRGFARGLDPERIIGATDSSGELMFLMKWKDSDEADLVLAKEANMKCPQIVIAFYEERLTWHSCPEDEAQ
UniProt Q5VW32: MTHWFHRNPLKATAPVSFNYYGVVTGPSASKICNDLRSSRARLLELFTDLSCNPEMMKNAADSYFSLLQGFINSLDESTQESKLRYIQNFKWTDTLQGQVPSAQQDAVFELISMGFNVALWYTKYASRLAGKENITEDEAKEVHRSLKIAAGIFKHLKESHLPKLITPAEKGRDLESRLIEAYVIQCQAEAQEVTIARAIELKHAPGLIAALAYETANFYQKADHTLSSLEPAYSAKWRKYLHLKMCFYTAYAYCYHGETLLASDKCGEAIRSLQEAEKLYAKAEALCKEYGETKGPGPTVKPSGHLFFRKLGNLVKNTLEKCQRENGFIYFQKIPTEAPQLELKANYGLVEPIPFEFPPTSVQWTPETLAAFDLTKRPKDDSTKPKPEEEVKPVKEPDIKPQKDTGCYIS

compound: COc1ccc(Cn2ccc3ccc(C(=O)NO)cc32)cc1; experiment: dose-dependent thermal stabilisation call (2D-TPP, DLPTP, 10% FDR) (binary (1 = stabilised)); higher = stabilised by the compound; details: system: HL-60 intact cells; concentration range 0.04-10 µM

Target | dose-dependent thermal stabilisation call
C18ORF32 (UniProt Q8TCD1) | inactive: 0
CASP3 (UniProt P42574) | inactive: 0
C1ORF156 (UniProt O95568) | inactive: 0
C16ORF35 (UniProt Q12980) | inactive: 0
C14ORF156 (UniProt Q9GZT3) | inactive: 0
C15ORF57 (UniProt Q9BV29) | inactive: 0
C5ORF25 (UniProt Q8NDZ2) | inactive: 0
CC2D1A (UniProt Q6P1N0) | inactive: 0
C9ORF114 (UniProt Q5T280) | inactive: 0
C20ORF74 (UniProt Q2PPJ7) | inactive: 0
CBX3 (UniProt Q13185) | inactive: 0
C1ORF58 (UniProt Q5VW32) | inactive: 0
